According to paper PMC9424285:
Results are given in words; binding and its absence hold for the method and conditions named. In cells and extracts the contact can be indirect.

Biological target: T1, phospholipase C-γ1 (PLC-γ1) (human (endogenous in KYSE410 and KYSE510)) (UniProt P19174)
T1 sequence: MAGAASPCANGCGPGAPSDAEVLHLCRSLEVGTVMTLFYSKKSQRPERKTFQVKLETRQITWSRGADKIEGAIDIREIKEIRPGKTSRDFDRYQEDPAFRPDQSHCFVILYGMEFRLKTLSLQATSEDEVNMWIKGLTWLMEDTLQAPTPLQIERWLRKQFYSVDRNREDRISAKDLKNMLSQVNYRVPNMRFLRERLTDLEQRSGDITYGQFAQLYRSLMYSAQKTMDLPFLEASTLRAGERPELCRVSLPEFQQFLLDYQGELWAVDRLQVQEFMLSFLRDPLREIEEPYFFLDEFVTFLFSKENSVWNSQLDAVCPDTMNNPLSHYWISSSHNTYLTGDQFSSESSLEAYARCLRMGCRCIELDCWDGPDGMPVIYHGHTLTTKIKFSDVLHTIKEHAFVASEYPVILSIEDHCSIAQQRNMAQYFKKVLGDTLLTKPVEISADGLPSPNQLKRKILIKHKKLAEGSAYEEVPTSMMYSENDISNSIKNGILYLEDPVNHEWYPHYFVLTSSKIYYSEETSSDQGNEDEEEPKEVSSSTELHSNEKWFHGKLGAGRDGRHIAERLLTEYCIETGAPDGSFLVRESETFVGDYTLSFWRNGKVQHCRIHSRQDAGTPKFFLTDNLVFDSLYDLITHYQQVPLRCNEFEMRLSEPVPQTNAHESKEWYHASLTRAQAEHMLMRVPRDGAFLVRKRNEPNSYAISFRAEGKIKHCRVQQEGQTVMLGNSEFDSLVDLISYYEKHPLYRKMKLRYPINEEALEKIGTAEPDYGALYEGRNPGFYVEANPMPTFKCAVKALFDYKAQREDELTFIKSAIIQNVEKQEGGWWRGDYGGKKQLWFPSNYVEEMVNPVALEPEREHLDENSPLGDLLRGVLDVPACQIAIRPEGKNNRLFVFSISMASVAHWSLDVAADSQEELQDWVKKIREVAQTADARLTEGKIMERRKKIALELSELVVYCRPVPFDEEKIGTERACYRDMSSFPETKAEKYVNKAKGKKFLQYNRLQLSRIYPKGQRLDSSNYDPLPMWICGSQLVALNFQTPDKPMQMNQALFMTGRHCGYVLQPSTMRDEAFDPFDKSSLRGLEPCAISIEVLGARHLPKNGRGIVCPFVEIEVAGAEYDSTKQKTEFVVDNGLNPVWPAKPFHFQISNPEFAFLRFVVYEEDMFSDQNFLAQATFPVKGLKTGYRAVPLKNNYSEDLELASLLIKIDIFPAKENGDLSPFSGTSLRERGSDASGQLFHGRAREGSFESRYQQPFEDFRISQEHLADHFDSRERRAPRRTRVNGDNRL
Assay: co-IP; immunoprecipitation-immunoblotting of KYSE410 or KYSE510 cells treated with CCL22 (50 ng/ml); PLC-γ1 against its partners

B1: C-C motif chemokine receptor 4 (CCR4) (receptor, UniProt P51679 1-360)
chain: MNPTDIADTTLDESIYSNYYLYESIPKPCTKEGIKAFGELFLPPLYSLVFVFGLLGNSVVVLVLFKYKRLRSMTDVYLLNLAISDLLFVFSLPFWGYYAADQWVFGLGLCKMISWMYLVGFYSGIFFVMLMSIDRYLAIVHAVFSLRARTLTYGVITSLATWSVAVFASLPGFLFSTCYTERNHTYCKTKYSLNSTTWKVLSSLEINILGLVIPLGIMLFCYSMIIRTLQHCKNEKKNKAVKMIFAVVVLFLGFWTPYNIVLFLETLVELEVLQDCTFERYLDYAIQATETLAFVHCCLNPIIYFFLGEKFRKYILQLFKTCRGLFVLCQYCGLLQIYSADTPSSSYTQSTMDHDLHDAL
- binding: no binding
